In patent US10428030B2, “Heterocycle derivatives and their use for the treatment of CNS disorders” (Trillium Therapeutics Inc., priority 2015, dated 2019):

Assays:
[1] = tested on: Frings audiogenic seizure-susceptible mice; assay: Frings audiogenic seizure (AGS)-susceptible mouse model; format: in vivo; conditions: TD50 in mice and ED50 in Frings mice
Description: Frings audiogenic seizure (AGS)-susceptible mice model examines the ability of an investigational drug to alter the onset and/or severity of seizures in a genetic mouse model of seizure susceptibility. Mice are genetically susceptible to sound-induced reflex seizures. Their seizure phenotype is characterized by wild running, loss of righting reflex, tonic flexion, and tonic extension in response to high-intensity sound stimulation. […] For example, the prototypical anticonvulsants phenytoin and ethosuximide display widely divergent clinical spectrums in humans, but are both active against sound-induced seizures in mice. Yet, the preclinical utility of this animal model rests in the useful information that can be obtained within a genetically susceptible model of seizures. Further, efficacy in this model provides proof of concept of brain bioavailability following systemic administration. The Frings AGS-susceptible mouse has a well-validated epilepsy phenotype that makes it particularly useful as a screening model. Beginning at about 21 days of age, Frings AGS-susceptible mice display prominent seizure activity in response to a high-intensity sound stimulus. They then remain susceptible to sound throughout their life. This is in stark contrast to the DBA2J AGS-susceptible mouse, which is the other common model of sound-induced seizures, as DBA2J mice are only susceptible to sound-induced seizures during a narrow developmental window (post-natal days 18-30). Thus, the Frings AGS-susceptible mouse seizures respond to a wide range of CNS-active drugs and display sound-induced seizures throughout their lifetime. In this regard, Frings AGS-susceptible mice are a highly useful screening model for the identification and characterization of compounds potentially effective against inherited epilepsy.
Male and female Frings audiogenic seizure-susceptible mice (18-25 g) are maintained in an in-house colony at the University of Utah. For each screening test, groups of 8 mice each are treated i.p. with varying doses of the investigational compound. At the time of peak effect as determined in the MES test (Test 4 in CF1 mice), individual mice are placed in a round plexiglass jar (diameter, 15 cm, height, 18 cm) and exposed to a sound stimulus of 110 decibels (11 KHz) delivered for 20 sec. Mice are observed for 25 sec for the presence or absence of hind limb tonic extension. Mice not displaying hind limb tonic extension are considered protected. The severity of a seizure may also be quantitated by assigning a numerical score to the observed response, e.g. no response—0; wild running for <10 sec—1; wild running for >10 sec—2; clonic seizure—3; forelimb extension/hind limb flexion—4; tonic seizure—5.

Male Sprague-Dawley rats = assay: Maximal Electroshock Seizure (MES) rat model; format: in vivo; conditions: protective index, rotorod vs MES, rat po
Procedure: Male, Sprague-Dawley rats and CD-1 mice were used for all studies. All animals were allowed ad-lib access to food and water except during experiment. Animals were housed within an animal vivarium maintained under a 12 h light:dark cycle (lights on: 07:00 h), and all experiments were conducted in the animals light phase. For all experiments, animals were habituated to the vivarium for a minimum of 72 h before experimentation. The experimental procedures used in the present investigation were conducted under the Association for Assessment and Accreditation of Laboratory Animal Care (AAALAC) and the Canadian Council on Animal Care (CCAC) guidelines.
All compounds were sonicated in 5% Tween 80® in saline or methylcellulose 0.5% (wgt/vol), using MC and sterile water and injected in a dose volume of 5 ml/kg or 10 ml/kg (rat), and 10 ml/kg (mouse). Drugs were administered by either the oral, intraperitoneal or intravenous route.
Male Sprague-Dawley rats of body weight 80-100 g were used for these studies. Each experiment was conducted over 3 consecutive days. On day 1 and 2, each rat received a single electrical stimulus (150 mA, 0.2 s duration, 60 Hz) via corneal electrodes moistened with saline (Shock stimulator type 221: Harvard apparatus). […] Typically this reflected approximately 70-90% of the initial group. […]

SMILES	P.I (TD50/ED50) [1]	PI (Male Sprague-Dawley rats)
NC(=O)N1c2ccccc2C=Cc2ccccc21 [Carbamazepine]	4.1	
O=C1COc2cc(OCc3ccc(OC(F)F)cc3)ccc2N1 [Compound I(B)]	77	>25
CCC1(C)CC(=O)NC1=O (stereo not shown) [Ethosuximide]	1	
NC(=O)OCC(COC(N)=O)c1ccccc1 [Felbamate]	22	
NCC1(CC(=O)O)CCCCC1 [Gabapentin]	>5.5	
O=C1Nc2ccc(OCc3ccccc3)cc2OC1(F)F [I(D), 7-Benzyloxy-2,2-difluoro-4H-benzo[1,4]oxazin-3-one]		>3.9
Nc1nnc(-c2cccc(Cl)c2Cl)c(N)n1 [Lamotrigine]	13	
O=C1NC(=O)C(c2ccccc2)(c2ccccc2)N1 [Phenytoin]	11	
CCCC(CCC)C(=O)O [Valproic Acid]	2.6	
